From paper doi:10.1101/570622
No constants are given. Whether binding was seen depends on the method and setting. In cells and extracts the contact can be indirect. Some results given as binding are weak or reduced against the parent protein; the word gives no strength. For part of these data: Sequences can lack the tags named with a protein.

T1: Septin 2 (Sept2) coupled to enhanced green fluorescent protein (EGFP) (rat) (UniProt Q91Y81)
T1 sequence: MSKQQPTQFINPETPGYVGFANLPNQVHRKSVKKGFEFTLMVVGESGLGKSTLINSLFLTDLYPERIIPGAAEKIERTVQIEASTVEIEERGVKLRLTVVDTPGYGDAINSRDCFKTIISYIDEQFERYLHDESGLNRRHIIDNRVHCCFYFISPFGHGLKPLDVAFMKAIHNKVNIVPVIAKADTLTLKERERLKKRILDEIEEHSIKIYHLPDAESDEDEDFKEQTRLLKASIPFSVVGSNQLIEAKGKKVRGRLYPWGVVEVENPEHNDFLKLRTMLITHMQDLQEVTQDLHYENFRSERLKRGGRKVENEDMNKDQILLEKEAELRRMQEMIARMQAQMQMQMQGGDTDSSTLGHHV

T2: Septin 2 (Sept2), wild type (rat (endogenous in NRK49F)) (UniProt Q91Y81)
T2 sequence: T1 sequence

B1: Sept7 (protein, UniProt Q9WVC0 1-436)
chain: MSVSARSAAAEERSVNCSTMAQPKNLEGYVGFANLPNQVYRKSVKRGFEFTLMVVGESGLGKSTLINSLFLTDLYSPEYPGPSHRIKKTVQVEQSKVLIKEGGVQLLLTIVDTPGFGDAVDNSNCWQPVIDYIDSKFEDYLNAESRVNRRQMPDNRVQCCLYFIAPSGHGLKPLDIEFMKRLHEKVNIIPLIAKADTLTPEECQQFKKQIMKEIQGHKIKIYEFPETDDEEENKLVKKIKDRLPLAVVGSNTIIEVNGKRVRGRQYPWGVAEVENGEHCDFTILRNMLIRTHMQDLKDVTNNVHYENYRSRKLAAVTYNGVDNNKNKGQLTKSPLAQMEEERREHVAKMKKMEMEMEQVFEMKVKEKVQKLKDSEAELQRRHEQMKKNLEAQHKELEEKRRQFEEEKANWEAQQRILEQQNSSRTLEKNKKKGKIF
B2: Sept8 (protein, UniProt B0BNF1 1-442)
chain: MAATDLERISNAEPEPRSLSLGGHVGFDSLPDQLVSKSVTQGFSFNILCVGETGIGKSTLMNTFFNTTFETEEASHHEECVRLRPQTYDLQESNVHLKLTIVDAVGFGDQINKDDSYRPIVDYIDTQFENYLQEELKIRRSLFDYHDTRIHVCLYFITPTGHSLKSLDLVTMKKLDSKVNIIPIIAKADTISKSELHKFKIKIMGELVSNGVQIYQFPTDDEAVAEINAVMNAHLPFAVVGSTEEVKVGNKLVRARQYPWGVVQVENENHCDFVKLREMLIRVNMEDLREQTHSRHYELYRRCKLEEMGFQDSDGDSQPFSLQETYEAKRKEFLSELQRKEEEMRQMFVNKVKETELELKEKERELHEKFEHLKRIHQEEKRKVEEKRRELEEETNAFNCRKAAMEALQSQALHATSQQPLRKDKDKKKVGGWSSIYSVTIP
B3: Sept9 (protein, UniProt Q9QZR6 1-564)
chain: MERDRITALKRSFEVEEIEPPNSTPPRRVQTPLLRATVASSSQKFQDLGVKNSEPAARLVDTLSQRSPKPSLRRVDLAGAKAPEPMSRRTELSIDISSKQVESTASTPGPSRFGLKRAEVLGHKTPEPVPRRTEITIVKPQESGLRRVETPASKAPEGSAMPVTDAAPKRVEIQVPKPAEAPNCPLPPQTLENSEAPMSQLQSRLEPRPPVTEVPYRNQEDSEVAPSCVVDMADNPRDAMLKQAPVSRNEKAPVDFGYVGIDSILEQMRRKAMKQGFEFNIMVVGQSGLGKSTLINTLFKSKISRKSVQPISEERIPKTIEIKSITHDIEEKGVRMKLTVIDTPGFGDHINNENCWQPIMKFINDQYEKYLQEEVNINRKKRIPDTRVHCCLYFIPATGHSLRPLDIEFMKRLSKVVNIVPVIAKADTLTLEERVYFKQRITSDLLSNGIDVYPQKEFDEAEDRLVNEKFREMIPFAVVGSDHEYQVNGKRILGRKTKWGTIEVENTTHCEFAYLRDLLIRTHMQNIKDITSNIHFEAYRVKRLNEGNSAMANGIEKEPETQEM
B4: Sept11 (protein, UniProt B3GNI6 1-431)
chain: MAVAVGRPSNEELRNLSLSGHVGFDSLPDQLVNKSTSQGFCFNILCVGETGIGKSTLMDTLFNTKFESDPATHNEPGVRLKARSYELQESNVRLKLTIVDTVGFGDQINKDDSYKPIVEYIDAQFEAYLQEELKIKRSLFNYHDTRIHACLYFIAPTGHSLKSLDLVTMKKLDSKVNIIPIIAKADTIAKNELHKFKSKIMSELVSNGVQIYQFPTDEETVAEINATMSVHLPFAVVGSTEEVKIGNKMAKARQYPWGVVQVENENHCDFVKLREMLIRVNMEDLREQTHTRHYELYRRCKLEEMGFKDTDPDSKPFSLQETYEAKRNEFLGELQKKEEEMRQMFVMRVKEKEAELKEAEKELHEKFDLLKRTHQEEKKKVEDKKKELEEEVSNFQKKKAAAQLLQSQAQQSGAQQTKKDKDKKNPWLCTE

Molecular target: T1, Septin 2 (Sept2) coupled to enhanced green fluorescent protein (EGFP) (rat)
Assay: co-IP

binding, binds:
B1
B2
B3
B4

Molecular target: T2, Septin 2 (Sept2), wild type (rat (endogenous in NRK49F))
Assay: co-IP

binding, binds:
B1
B2
B3
B4

Molecular target: T1, Septin 2 (Sept2) coupled to enhanced green fluorescent protein (EGFP) (rat)
Assay: co-IP
Remark: another data set of the same source

binding, binds:
B1
B2
B3
B4
